Laboratory results taken from the supplement of paper PMC10849652.
Some of the results follow. Residues, ends and D or L forms follow the SMILES beside them. *: point of attachment. Cbz = O=C(OCc1ccccc1)*

Protein sequences, listed by entry. Tags and fused reporters are not part of them. Lines headed by an entry give the natural chain unless they say otherwise; changes in a name come on top.
UniProt Q7Z7H5: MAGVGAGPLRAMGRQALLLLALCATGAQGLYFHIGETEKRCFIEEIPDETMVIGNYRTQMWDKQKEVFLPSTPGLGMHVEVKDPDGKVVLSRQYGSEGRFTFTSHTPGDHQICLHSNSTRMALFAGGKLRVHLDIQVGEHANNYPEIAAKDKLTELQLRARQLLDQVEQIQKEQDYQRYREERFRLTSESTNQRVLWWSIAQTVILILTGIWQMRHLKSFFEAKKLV
UniProt Q04727: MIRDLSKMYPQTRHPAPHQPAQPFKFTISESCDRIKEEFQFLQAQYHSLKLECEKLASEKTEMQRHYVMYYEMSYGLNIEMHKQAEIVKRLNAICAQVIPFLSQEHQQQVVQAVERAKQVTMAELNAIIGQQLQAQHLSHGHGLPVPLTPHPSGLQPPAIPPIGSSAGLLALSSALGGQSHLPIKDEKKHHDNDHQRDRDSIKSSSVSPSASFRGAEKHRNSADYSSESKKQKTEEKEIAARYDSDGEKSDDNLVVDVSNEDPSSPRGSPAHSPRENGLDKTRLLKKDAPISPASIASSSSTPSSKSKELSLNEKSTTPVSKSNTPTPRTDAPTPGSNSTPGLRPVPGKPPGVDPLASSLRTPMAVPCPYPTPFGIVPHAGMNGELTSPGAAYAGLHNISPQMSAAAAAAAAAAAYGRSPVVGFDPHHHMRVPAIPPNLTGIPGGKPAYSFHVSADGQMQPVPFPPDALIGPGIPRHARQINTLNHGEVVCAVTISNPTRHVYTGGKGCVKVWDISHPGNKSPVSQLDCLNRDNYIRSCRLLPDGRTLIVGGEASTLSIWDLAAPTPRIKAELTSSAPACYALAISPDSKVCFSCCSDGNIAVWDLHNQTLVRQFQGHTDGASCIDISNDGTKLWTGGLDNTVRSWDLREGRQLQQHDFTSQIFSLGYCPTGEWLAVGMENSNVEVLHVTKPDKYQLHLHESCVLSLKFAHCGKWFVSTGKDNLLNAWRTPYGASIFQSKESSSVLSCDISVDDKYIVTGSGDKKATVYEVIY
UniProt Q9NYL9: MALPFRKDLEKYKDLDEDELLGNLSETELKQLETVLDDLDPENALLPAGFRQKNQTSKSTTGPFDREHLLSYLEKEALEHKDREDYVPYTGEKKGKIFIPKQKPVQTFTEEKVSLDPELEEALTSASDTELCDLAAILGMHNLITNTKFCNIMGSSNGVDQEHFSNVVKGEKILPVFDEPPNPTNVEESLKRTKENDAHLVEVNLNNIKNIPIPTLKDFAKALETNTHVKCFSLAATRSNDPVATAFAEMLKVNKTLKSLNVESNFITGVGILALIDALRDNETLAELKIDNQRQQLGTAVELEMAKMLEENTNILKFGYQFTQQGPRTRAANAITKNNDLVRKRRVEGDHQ
UniProt Q13445: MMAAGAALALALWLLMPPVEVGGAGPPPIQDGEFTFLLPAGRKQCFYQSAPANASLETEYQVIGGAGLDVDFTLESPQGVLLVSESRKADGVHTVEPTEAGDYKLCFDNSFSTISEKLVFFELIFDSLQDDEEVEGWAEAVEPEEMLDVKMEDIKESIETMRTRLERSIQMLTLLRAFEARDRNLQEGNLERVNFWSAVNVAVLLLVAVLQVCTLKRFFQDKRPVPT
UniProt Q6ZT21: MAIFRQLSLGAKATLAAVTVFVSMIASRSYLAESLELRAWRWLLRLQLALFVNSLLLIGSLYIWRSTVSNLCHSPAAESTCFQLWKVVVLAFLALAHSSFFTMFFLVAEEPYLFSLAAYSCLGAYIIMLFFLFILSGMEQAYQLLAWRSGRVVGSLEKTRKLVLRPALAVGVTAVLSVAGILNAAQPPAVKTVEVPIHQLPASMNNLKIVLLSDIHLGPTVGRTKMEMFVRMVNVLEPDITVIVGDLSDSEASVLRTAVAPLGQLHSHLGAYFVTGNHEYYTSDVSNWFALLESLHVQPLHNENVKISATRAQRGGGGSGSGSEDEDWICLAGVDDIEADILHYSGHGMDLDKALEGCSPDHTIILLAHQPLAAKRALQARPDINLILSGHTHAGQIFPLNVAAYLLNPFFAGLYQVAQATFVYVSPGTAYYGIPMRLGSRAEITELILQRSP
UniProt P49755: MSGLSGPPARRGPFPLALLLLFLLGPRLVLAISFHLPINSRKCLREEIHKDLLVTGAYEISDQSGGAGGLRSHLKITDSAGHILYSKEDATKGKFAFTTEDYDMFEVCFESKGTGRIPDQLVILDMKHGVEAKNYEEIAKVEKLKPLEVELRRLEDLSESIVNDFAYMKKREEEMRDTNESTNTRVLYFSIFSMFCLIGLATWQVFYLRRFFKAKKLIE
UniProt Q9NVH6: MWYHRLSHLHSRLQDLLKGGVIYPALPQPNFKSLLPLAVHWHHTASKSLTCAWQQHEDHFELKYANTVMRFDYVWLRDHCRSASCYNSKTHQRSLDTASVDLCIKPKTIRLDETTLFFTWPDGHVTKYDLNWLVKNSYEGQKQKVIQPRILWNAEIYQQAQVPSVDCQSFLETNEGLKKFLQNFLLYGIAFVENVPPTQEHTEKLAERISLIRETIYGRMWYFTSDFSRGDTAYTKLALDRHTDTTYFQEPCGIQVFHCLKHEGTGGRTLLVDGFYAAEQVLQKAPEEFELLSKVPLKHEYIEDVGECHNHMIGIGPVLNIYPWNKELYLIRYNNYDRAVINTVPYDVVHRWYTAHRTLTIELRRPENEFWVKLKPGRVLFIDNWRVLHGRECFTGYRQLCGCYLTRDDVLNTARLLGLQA
UniProt Q86UE8, whole entry, looked up: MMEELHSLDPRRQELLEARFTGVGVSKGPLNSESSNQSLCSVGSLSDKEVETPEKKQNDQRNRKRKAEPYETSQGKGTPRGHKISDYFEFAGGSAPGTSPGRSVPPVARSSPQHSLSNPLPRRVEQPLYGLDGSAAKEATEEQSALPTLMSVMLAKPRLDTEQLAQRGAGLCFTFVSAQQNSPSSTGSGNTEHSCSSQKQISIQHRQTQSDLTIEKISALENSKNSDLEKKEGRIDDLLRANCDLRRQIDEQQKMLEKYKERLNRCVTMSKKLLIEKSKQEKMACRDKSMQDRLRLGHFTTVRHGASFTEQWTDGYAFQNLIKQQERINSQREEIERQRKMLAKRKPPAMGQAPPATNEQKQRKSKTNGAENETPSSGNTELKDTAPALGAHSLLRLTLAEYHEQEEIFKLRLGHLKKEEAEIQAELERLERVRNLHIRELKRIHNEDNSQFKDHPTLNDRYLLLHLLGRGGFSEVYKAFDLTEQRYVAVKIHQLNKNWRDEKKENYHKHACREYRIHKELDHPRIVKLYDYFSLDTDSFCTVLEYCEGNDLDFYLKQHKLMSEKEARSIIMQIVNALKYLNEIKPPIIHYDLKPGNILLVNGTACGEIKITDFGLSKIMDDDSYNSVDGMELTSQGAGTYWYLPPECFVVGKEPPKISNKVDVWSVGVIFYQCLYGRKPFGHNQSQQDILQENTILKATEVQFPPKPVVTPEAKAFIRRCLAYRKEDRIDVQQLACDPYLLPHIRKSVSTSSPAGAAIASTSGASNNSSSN
UniProt Q9H7F4: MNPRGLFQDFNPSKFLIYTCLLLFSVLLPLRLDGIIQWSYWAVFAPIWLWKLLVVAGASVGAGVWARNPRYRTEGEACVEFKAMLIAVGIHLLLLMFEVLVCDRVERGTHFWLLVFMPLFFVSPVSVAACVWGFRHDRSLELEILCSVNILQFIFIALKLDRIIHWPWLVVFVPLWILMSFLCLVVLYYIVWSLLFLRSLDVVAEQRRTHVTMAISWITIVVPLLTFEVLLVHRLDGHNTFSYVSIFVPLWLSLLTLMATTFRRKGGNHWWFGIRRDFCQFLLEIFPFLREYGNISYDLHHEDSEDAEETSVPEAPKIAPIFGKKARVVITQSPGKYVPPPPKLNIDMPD
UniProt P21580: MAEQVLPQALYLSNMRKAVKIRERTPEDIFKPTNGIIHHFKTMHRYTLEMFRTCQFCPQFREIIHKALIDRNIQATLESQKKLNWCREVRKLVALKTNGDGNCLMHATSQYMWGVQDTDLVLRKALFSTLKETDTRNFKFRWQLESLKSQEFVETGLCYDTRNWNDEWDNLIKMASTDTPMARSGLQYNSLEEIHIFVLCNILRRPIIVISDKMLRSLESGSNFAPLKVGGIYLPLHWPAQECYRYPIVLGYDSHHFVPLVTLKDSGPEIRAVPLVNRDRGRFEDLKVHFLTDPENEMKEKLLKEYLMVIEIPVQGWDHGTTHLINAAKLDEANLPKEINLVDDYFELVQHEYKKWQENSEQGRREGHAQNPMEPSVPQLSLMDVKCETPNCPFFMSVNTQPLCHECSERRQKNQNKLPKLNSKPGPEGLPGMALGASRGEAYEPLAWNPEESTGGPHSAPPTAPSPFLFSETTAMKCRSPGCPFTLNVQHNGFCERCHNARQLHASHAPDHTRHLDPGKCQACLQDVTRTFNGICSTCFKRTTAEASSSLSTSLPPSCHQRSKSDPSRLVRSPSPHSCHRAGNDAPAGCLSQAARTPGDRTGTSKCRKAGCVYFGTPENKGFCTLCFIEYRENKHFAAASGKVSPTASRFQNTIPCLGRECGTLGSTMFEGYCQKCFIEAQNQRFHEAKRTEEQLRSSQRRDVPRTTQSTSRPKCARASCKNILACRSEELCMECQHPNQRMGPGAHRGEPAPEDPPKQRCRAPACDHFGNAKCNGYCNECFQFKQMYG
UniProt Q9BTX3: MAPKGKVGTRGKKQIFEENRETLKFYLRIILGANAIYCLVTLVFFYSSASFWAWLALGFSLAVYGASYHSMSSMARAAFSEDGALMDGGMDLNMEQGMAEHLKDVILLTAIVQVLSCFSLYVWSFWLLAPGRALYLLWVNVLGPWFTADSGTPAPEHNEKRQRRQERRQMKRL
UniProt Q12893: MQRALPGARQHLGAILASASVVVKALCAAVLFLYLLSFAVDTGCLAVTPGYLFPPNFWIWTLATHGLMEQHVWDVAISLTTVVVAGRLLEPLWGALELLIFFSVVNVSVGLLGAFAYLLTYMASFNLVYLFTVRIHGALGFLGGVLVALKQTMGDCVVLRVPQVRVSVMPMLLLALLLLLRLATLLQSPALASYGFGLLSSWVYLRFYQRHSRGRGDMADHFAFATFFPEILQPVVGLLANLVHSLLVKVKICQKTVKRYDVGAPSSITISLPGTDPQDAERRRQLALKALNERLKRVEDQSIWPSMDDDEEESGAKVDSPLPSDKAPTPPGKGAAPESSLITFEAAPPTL
UniProt Q5BJD5: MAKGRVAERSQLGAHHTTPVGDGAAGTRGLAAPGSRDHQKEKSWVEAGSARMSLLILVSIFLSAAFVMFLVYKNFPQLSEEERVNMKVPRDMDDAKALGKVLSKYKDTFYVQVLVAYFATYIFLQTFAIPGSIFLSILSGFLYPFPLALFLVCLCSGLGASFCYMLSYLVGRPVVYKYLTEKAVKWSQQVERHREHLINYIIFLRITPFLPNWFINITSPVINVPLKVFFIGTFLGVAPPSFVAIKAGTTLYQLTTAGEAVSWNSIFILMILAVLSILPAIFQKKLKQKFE
UniProt Q92544: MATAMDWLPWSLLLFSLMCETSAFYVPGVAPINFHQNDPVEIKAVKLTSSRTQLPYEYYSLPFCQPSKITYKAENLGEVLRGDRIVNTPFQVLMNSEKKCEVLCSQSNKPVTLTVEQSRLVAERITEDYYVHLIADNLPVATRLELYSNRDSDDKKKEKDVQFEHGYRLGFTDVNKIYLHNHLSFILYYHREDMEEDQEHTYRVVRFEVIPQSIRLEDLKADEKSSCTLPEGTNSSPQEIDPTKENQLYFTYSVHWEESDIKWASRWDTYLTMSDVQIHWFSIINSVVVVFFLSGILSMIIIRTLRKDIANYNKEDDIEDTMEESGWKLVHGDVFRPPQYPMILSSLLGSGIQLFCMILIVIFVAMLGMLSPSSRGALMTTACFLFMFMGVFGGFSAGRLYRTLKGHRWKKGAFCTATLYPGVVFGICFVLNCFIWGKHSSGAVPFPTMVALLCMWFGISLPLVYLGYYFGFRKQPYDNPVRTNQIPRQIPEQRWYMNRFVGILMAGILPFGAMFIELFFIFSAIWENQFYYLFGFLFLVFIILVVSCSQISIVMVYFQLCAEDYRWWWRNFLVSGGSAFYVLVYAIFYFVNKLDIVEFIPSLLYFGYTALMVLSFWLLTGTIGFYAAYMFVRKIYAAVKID

How the values were obtained:
Test in all cases: log2 fold change, soluble protein after heating vs DMSO (PISA); higher = thermal stabilisation; K562 cells, 10 uM, 30 min; active = over 0.2 and 3.5 SD of the protein, either way, in both replicates (recomputed)
IRAK-1-4 Inhibitor I = compound: C1COCCN1CCN2C3=CC=CC=C3N=C2NC(=O)C4=CC(=CC=C4)[N+](=O)[O-] [IRAK-1-4 Inhibitor I]
In short: (§1)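 K562 cells at 2×10^6 cells/mL were treated for 30 min with 10 μM compound, and aliquots were heated for 3 min over 48°C-58°C before pooling. Extraction used PBS with 0.5% NP-40 at 4°C, and soluble protein was the supernatant after 21,000xg for 90 min, measured by TMTpro 16plex LC-MS/MS with channel sums equalised. Thermal stability values, relative to control samples and from duplicates, are log2 fold changes.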

ibrutinib = compound: C=CC(=O)N1CCC[C@@H](n2nc(-c3ccc(Oc4ccccc4)cc3)c3c(N)ncnc32)C1 [ibrutinib]
In short: as §1

[1] = compound: CC(=O)c1cnc2ccc(-c3cc(Cl)c(O)c(Cl)c3)nc2c1N[C@H]1CC[C@H](CN(C)C)CC1
In short: as §1

ralimetinib = compound: CC(C)(C)Cn1c(N)nc2ccc(-c3[nH]c(C(C)(C)C)nc3-c3ccc(F)cc3)nc21 [ralimetinib]
In short: as §1

[2] = compound: CC(C)(O)CC(=O)NCCn1ccc2ncnc(Nc3ccc(Oc4cccc(C(F)(F)F)c4)c(Cl)c3)c21
In short: as §1

[3] = compound: CC(C)C1=C2N=C(C=C(N2N=C1)NCC3=CC=CC=C3)NCCCCCCN
In short: as §1

[4] = compound: CC(C)C[C@@H](C=O)NC(=O)[C@H](CC(C)C)NC(=O)[C@H](CC(C)C)NC(=O)OCc1ccccc1
In short: as §1

pinometostat = compound: CC(C)N(C[C@H]1O[C@@H](n2cnc3c(N)ncnc32)[C@H](O)[C@@H]1O)[C@H]1C[C@@H](CCc2nc3cc(C(C)(C)C)ccc3[nH]2)C1 [pinometostat]
In short: as §1

[5] = compound: CC1=C(C(CC(=O)N1)C2=CC=C(C=C2)C(F)(F)F)C(=O)NC3=C(C=C4C(=C3)C=NN4)F
In short: as §1

[6] = compound: CC1=C(C2=C(C=C1)C(=O)C3=CC=CC=C3N2CCCN)C
In short: as §1

[7] = compound: CC1=C(C=C(C=C1)NC(=O)C2=CC(=CC=C2)C(C)(C)C#N)NC3=CC4=C(C=C3)N=CN(C4=O)C
In short: as §1

[8] = compound: CC1=C(C=C(C=C1)NC(=O)C2=CC(=CC=C2)N(C)C)NC(=O)C3=CC=C(C=C3)O
In short: as §1

[9] = compound: CC1=CC=C(C=C1)SC2=C3C=C(SC3=CN=C2)C(=O)N
In short: as §1

[10] = compound: CC1=NC(=CC=C1)C2=C(N=C(N2)C(C)(C)C)C3=CC4=NC=CN=C4C=C3
In short: as §1

Nexturastat A = compound: CCCCN(Cc1ccc(C(=O)NO)cc1)C(=O)Nc1ccccc1 [Nexturastat A]
In short: as §1

vemurafenib = compound: CCCS(=O)(=O)Nc1ccc(F)c(C(=O)c2c[nH]c3ncc(-c4ccc(Cl)cc4)cc23)c1F [vemurafenib]
In short: as §1

[11] = compound: CCCS(=O)(=O)Nc1ccc(F)c(C(=O)c2c[nH]c3ncc(Cl)cc23)c1F
In short: as §1

[12] = compound: CCCc1cc(C)[nH]c(=O)c1CNC(=O)c1cc(-c2ccnc(N3CCN(C)CC3)c2)cc2c1cnn2C(C)C
In short: as §1

givinostat = compound: CCN(CC)Cc1ccc2cc(COC(=O)Nc3ccc(C(=O)NO)cc3)ccc2c1 [givinostat]
In short: as §1

barasertib = compound: CCN(CCCOc1ccc2c(Nc3cc(CC(=O)Nc4cccc(F)c4)[nH]n3)ncnc2c1)CCOP(=O)(O)O [barasertib]
In short: as §1

Row | Target | log2 fold change (IRAK-1-4 Inhibitor I) | log2 fold change (ibrutinib) | log2 fold change [1] | log2 fold change (ralimetinib) | log2 fold change [2] | log2 fold change [3] | log2 fold change [4] | log2 fold change (pinometostat) | log2 fold change [5] | log2 fold change [6] | log2 fold change [7] | log2 fold change [8] | log2 fold change [9] | log2 fold change [10] | log2 fold change (Nexturastat A) | log2 fold change (vemurafenib) | log2 fold change [11] | log2 fold change [12] | log2 fold change (givinostat) | log2 fold change (barasertib)
1 | TMED4 (UniProt Q7Z7H5) | inactive: 0.046 | inactive: 0.013 | inactive: -0.046 | inactive: -0.082 | inactive: -0.025 | inactive: -0.026 | inactive: -0.025 | inactive: -0.039 | inactive: 0.001 | inactive: 0.033 | inactive: 0.002 | inactive: 0.028 | inactive: 0.029 | inactive: 0.057 | inactive: -0.104 | inactive: 0.077 | inactive: -0.01 | inactive: 0.032 | inactive: 0.014 | inactive: -0.035
2 | TLE4 isoform 3 (UniProt Q04727) | inactive: 0.075 | inactive: -0.031 | inactive: -0.015 | inactive: -0.078 | inactive: -0.021 | inactive: 0.018 | inactive: -0.003 | inactive: 0 | inactive: 0.064 | inactive: 0.01 | inactive: -0.037 | inactive: -0.03 | inactive: -0.032 | inactive: 0.001 | inactive: -0.016 | inactive: -0.019 | inactive: 0.006 | inactive: -0.027 | inactive: -0.024 | inactive: -0.016
3 | TMOD3 (UniProt Q9NYL9) | inactive: -0.049 | inactive: -0.005 | inactive: 0.048 | inactive: 0.088 | inactive: -0.036 | inactive: -0.102 | inactive: 0.065 | inactive: 0.015 | inactive: -0.018 | inactive: -0.067 | inactive: 0.05 | inactive: -0.024 | inactive: 0.022 | inactive: 0.013 | inactive: 0.051 | inactive: 0.048 | inactive: 0.051 | inactive: 0.029 | inactive: 0.001 | inactive: 0.036
4 | TMED1 (UniProt Q13445) | inactive: -0.008 | inactive: -0.005 | inactive: 0.077 | inactive: -0.217 | inactive: -0.055 | inactive: 0.024 | inactive: 0.064 | inactive: -0.053 | inactive: -0.035 | inactive: 0.005 | inactive: -0.029 | inactive: 0.014 | inactive: 0.057 | inactive: 0.09 | inactive: -0.044 | inactive: 0.042 | inactive: 0.01 | inactive: 0.083 | inactive: 0.009 | inactive: 0.063
5 | TMPPE (UniProt Q6ZT21) | inactive: 0.019 | inactive: -0.007 | inactive: -0.031 | inactive: -0.015 | inactive: 0.015 | inactive: -0.032 | inactive: -0.006 | inactive: -0.042 | inactive: -0.019 | inactive: 0.062 | inactive: 0.01 | inactive: 0.011 | inactive: -0.02 | inactive: 0.041 | inactive: -0.198 | inactive: 0.008 | inactive: -0.037 | inactive: -0.036 | inactive: 0.01 | inactive: -0.053
6 | TLN2 (UniProt Q9Y4G6) | inactive: -0.048 | inactive: -0.069 | inactive: 0.073 | inactive: -0.038 | inactive: -0.036 | inactive: -0.016 | inactive: 0.151 | inactive: -0.018 | inactive: -0.036 | inactive: -0.036 | inactive: 0.01 | inactive: -0.003 | inactive: 0.006 | inactive: 0.012 | inactive: -0.001 | inactive: 0.053 | inactive: 0.075 | inactive: 0.049 | inactive: 0.025 | inactive: -0.043
7 | TMED10 (UniProt P49755) | inactive: 0.035 | inactive: 0.003 | inactive: 0.001 | inactive: 0.022 | inactive: -0.053 | inactive: -0.008 | inactive: -0.019 | inactive: 0.006 | inactive: -0.018 | inactive: 0.011 | inactive: -0.021 | inactive: -0.002 | inactive: -0.009 | inactive: -0.008 | inactive: -0.051 | inactive: 0.042 | inactive: -0.016 | inactive: 0.005 | inactive: 0.011 | inactive: -0.01
8 | TMLHE isoform 8 (UniProt Q9NVH6) | inactive: 0.02 | inactive: -0.005 | inactive: -0.047 | inactive: -0.028 | inactive: 0.002 | inactive: 0.02 | inactive: 0.004 | inactive: -0.022 | inactive: -0.119 | inactive: 0.199 | inactive: -0.079 | inactive: 0.059 | inactive: 0 | inactive: -0.01 | inactive: 0.058 | inactive: -0.014 | inactive: -0.114 | inactive: -0.029 | inactive: -0.061 | inactive: 0.042
9 | TLK2 isoform 2 (UniProt Q86UE8) | inactive: 0.035 | inactive: -0.011 | inactive: -0.144 | inactive: -0.003 | inactive: -0.077 | inactive: 0.011 | inactive: 0.025 | inactive: -0.004 | – | active: 0.282 | inactive: -0.003 | inactive: -0.015 | inactive: -0.013 | inactive: 0.02 | inactive: -0.072 | inactive: -0.029 | inactive: 0.03 | inactive: -0.036 | inactive: 0.099 | inactive: -0.006
10 | TMEM185B (UniProt Q9H7F4) | inactive: 0.018 | inactive: 0.012 | inactive: -0.082 | inactive: -0.188 | inactive: -0.012 | inactive: -0.142 | inactive: 0.096 | inactive: -0.01 | inactive: 0.017 | inactive: 0.044 | inactive: 0.018 | inactive: -0.129 | inactive: 0.029 | inactive: 0.022 | inactive: 0.011 | inactive: -0.106 | inactive: 0.024 | inactive: -0.133 | inactive: -0.114 | inactive: -0.003
11 | TNFAIP3 (UniProt P21580) | inactive: 0.055 | inactive: 0.167 | inactive: -0.213 | inactive: -0.068 | inactive: 0.083 | inactive: -0.056 | inactive: 0.064 | inactive: 0.048 | inactive: -0.206 | – | – | inactive: 0.106 | inactive: 0.006 | inactive: -0.057 | inactive: -0.001 | inactive: 0.028 | inactive: 0.134 | inactive: 0.016 | inactive: 0.021 | inactive: -0.155
12 | TMEM208 (UniProt Q9BTX3) | inactive: 0.04 | inactive: -0.09 | inactive: 0.078 | inactive: -0.145 | inactive: -0.088 | active: -0.412 | inactive: 0.046 | inactive: 0.081 | – | inactive: 0.081 | inactive: -0.093 | inactive: 0.005 | inactive: 0.037 | inactive: -0.022 | inactive: -0.112 | inactive: -0.06 | inactive: 0.035 | inactive: -0.219 | inactive: 0.097 | inactive: -0.012
13 | TMEM115 (UniProt Q12893) | inactive: 0.056 | inactive: 0.045 | inactive: 0.046 | inactive: -0.052 | inactive: 0.014 | inactive: -0.127 | inactive: 0.036 | inactive: -0.012 | inactive: -0.086 | inactive: -0.007 | inactive: -0.017 | inactive: 0.062 | inactive: 0.022 | inactive: -0.018 | inactive: -0.091 | inactive: -0.069 | inactive: 0.002 | inactive: -0.054 | inactive: 0.012 | inactive: -0.009
14 | TMEM41B (UniProt Q5BJD5) | inactive: -0.098 | inactive: -0.017 | inactive: -0.065 | inactive: -0.016 | inactive: 0.133 | inactive: -0.194 | inactive: -0.077 | inactive: -0.068 | inactive: 0.013 | inactive: 0.049 | – | inactive: -0.079 | inactive: -0.017 | inactive: 0.058 | inactive: -0.087 | inactive: 0.004 | inactive: -0.083 | inactive: -0.074 | inactive: 0.042 | inactive: -0.049
15 | TM9SF4 (UniProt Q92544) | inactive: -0.006 | inactive: 0.008 | inactive: -0.016 | inactive: 0.031 | inactive: -0.006 | inactive: -0.033 | inactive: 0.029 | inactive: 0.016 | – | inactive: 0.077 | inactive: 0.084 | inactive: -0.022 | inactive: 0.014 | inactive: -0.012 | inactive: -0.029 | inactive: 0.031 | inactive: 0.073 | inactive: 0.034 | inactive: 0.054 | inactive: 0.004

Limited to log2 fold change [3] (2 entries from above):
Row	Target	log2 fold change [3]
3	TMOD3 (UniProt Q9NYL9)	inactive: -0.102
4	TMED1 (UniProt Q13445)	inactive: 0.024
